# Experimental data published in patent EP0395099B1 (priority 1989, dated 1990).
# At least one read-out could not be matched to a standard name with certainty.
# Tested on: Staphylococcus aureus strain FRI-1169
# Type: cell-based
# Settings: Example 8: test tampon comprising 1% by weight of the ester; vs untreated control tampon
structure (smiles),measurement,value
"CCCCCCCCCCCCCCCCCC(=O)OCC(O)CO (stereo not shown) [Tampon No. 5, Glyceryl monostearate]",REDUCTION IN TSST-1 FORMATION,62.5%
